Assay results published in PubChem BioAssay AID330 (DTP/NCI, 2004).
The list shows only some results of the screen, not a fair sample: it gathers tests that were run many times, whatever their T/C, doses with no T/C, and many T/C values between a quarter and a half above the control. Other doses and runs of a compound stand elsewhere. T/C is the treated group as % of the vehicle group. Some entries give survivors of the animals treated and no T/C: the source holds a T/C of zero for them, seemingly a mark for toxic or unscored doses. Some survivor counts are full or nearly so, which does not show that the dose was tolerated: the source hardly ever lists a survival T/C far under the control, and the zero likely stands for such cases as well. Counts of survivors are from the toxicity check (mostly the fifth day) where no day follows; animals may have died later. Schedules are NCI's codes, read here as Q, the interval in days (D) or hours (H), X, the number of doses. Some entries were tested several times; the results are listed from low to high. For survival time, the PubChem record calls one and a half times the control and up active, and a quarter to a half above the control has no call in these data; cut-offs in other NCI protocols can differ. Some T/C values carry the count of animals alive at the toxicity check (mostly the fifth day); where none is given, no animal had died by that day. Counts like (3×) count equal records among those shown.

System: P388 leukemia ip, CD2F1 mice, survival T/C
Test: NCI In Vivo Anticancer Drug Screen. Data for tumor model P388 Leukemia (intraperitoneal) in CD2F1 (CDF1) mice
Details: T/C endpoint: median survival time, higher T/C = longer survival
[1] = dose: 50.0 mg/kg/injection, schedule: Q01DX009 (ip), vehicle: saline
[2] = dose: 100.0 mg/kg/injection, schedule: Q01DX009 (ip), vehicle: Klucel (hydroxypropylcellulose) (HPC)
[3] = dose: 100.0 mg/kg/injection, schedule: Q01DX009 (ip), vehicle: saline
[4] = dose: 200.0 mg/kg/injection, schedule: Q01DX009 (ip), vehicle: Klucel (hydroxypropylcellulose) (HPC)
[5] = dose: 200.0 mg/kg/injection, schedule: Q01DX009 (ip), vehicle: saline
[6] = dose: 400.0 mg/kg/injection, schedule: Q01DX009 (ip), vehicle: Klucel (hydroxypropylcellulose) (HPC)
[7] = dose: 240.0 mg/kg/injection, schedule: Q01DX005 (ip), vehicle: saline with Tween-80
[8] = dose: 100.0 mg/kg/injection, schedule: Q01DX009 (ip), vehicle: water
[9] = dose: 100.0 mg/kg/injection, schedule: Q01DX005 (ip), vehicle: Klucel (hydroxypropylcellulose) (HPC)
[10] = dose: 200.0 mg/kg/injection, schedule: Q01DX005 (ip), vehicle: Klucel (hydroxypropylcellulose) (HPC)
[11] = dose: 50.0 mg/kg/injection, schedule: Q01DX005 (ip), vehicle: saline + alcohol

O=C(Nc1ccccc1)Oc1ccc[nH]c1=O was tested, and the T/C [1] was 125 % of control, the T/C [2] was 126 % of control and the T/C [3] was 130 and 132 % of control. The survivor count [4] was 2 of 6 and 3 of 6, the survivor count [5] was 6 of 6 and the survivor count [6] was 0 of 6. For the same compound, the survivor count (dose: 400.0 mg/kg/injection, schedule: Q01DX009 (ip), vehicle: saline) was 0 of 6.
For Cc1cc(=O)c2c(C)nn(-c3ccccc3)c2[nH]1, the survivor count (dose: 60.0 mg/kg/injection, schedule: Q01DX005 (ip), vehicle: Klucel (hydroxypropylcellulose) (HPC)) was 6 of 6 and the survivor count (dose: 120.0 mg/kg/injection, schedule: Q01DX005 (ip), vehicle: Klucel (hydroxypropylcellulose) (HPC)) was 6 of 6.
With CC(C)(C)N=S=Nc1c(F)c(F)c(F)c(F)c1F the survivor count (dose: 200.0 mg/kg/injection, schedule: Q01DX005 (ip), vehicle: saline with Tween-80) was 0 of 6.
With COc1cc(O)ccc1C(=S)SC the survivor count (dose: 400.0 mg/kg/injection, schedule: Q04DX003 (ip), vehicle: saline with Tween-80) was 3 of 6.
COc1cc(OC)c(NC(=O)ON2C(=O)c3ccccc3C2=O)cc1Cl was tested, and the T/C (dose: 50.0 mg/kg/injection, schedule: Q01DX009 (ip), vehicle: saline with Tween-80) was 132 % of control, the survivor count (dose: 100.0 mg/kg/injection, schedule: Q01DX009 (ip), vehicle: saline with Tween-80) was 5 of 6 and the survivor count (dose: 200.0 mg/kg/injection, schedule: Q01DX009 (ip), vehicle: saline with Tween-80) was 3 of 6.
For COC(=O)C1(CC(=O)c2ccc(Cl)cc2Cl)NC(=S)NC(=O)C1C#N (stereo not given), the survivor count [7] was 5 of 6.
CCCn1cc2c3c(cccc31)[C@H]1C[C@@H](C)CN(C)[C@@H]1C2 was tested, and the T/C (dose: 25.0 mg/kg/injection, schedule: Q01DX005 (ip), vehicle: saline with Tween-80) was 126 % of control.
For CC(Cc1ccc(O)cc1)NCC(O)c1cc(O)cc(O)c1 (stereo not given), the T/C [3] was 140 % of control.
In the case of Nc1nncs1, the T/C (dose: 12.5 mg/kg/injection, schedule: Q01DX009 (ip), vehicle: water, evaluated on day 30) is reported as 139 and 145 % of control (2×), the T/C (dose: 12.5 mg/kg/injection, schedule: Q01DX009 (ip), vehicle: water, evaluated on day 35) is reported as 110 % of control and the T/C (dose: 15.0 mg/kg/injection, schedule: Q01DX009 (ip), vehicle: water) is reported as 128 % of control. The T/C (dose: 25.0 mg/kg/injection, schedule: Q01DX009 (ip), vehicle: water, evaluated on day 30) was 166, 181, 193 % of control, the T/C (dose: 25.0 mg/kg/injection, schedule: Q01DX009 (ip), vehicle: water, evaluated on day 35) was 162 % of control and the T/C (dose: 30.0 mg/kg/injection, schedule: Q01DX009 (ip), vehicle: water) was 140 % of control. The T/C (dose: 40.0 mg/kg/injection, schedule: Q01DX005 (ip), vehicle: saline) was 136 % of control, the T/C (dose: 50.0 mg/kg/injection, schedule: Q01DX009 (ip), vehicle: water, evaluated on day 30) was 90 and 168 % of control and the T/C (dose: 50.0 mg/kg/injection, schedule: Q01DX009 (ip), vehicle: water, evaluated on day 35) was 162 % of control. The survivor count (dose: 50.0 mg/kg/injection, schedule: Q01DX009 (ip), vehicle: water) was 4 of 6, the T/C [8] was 90 % of control and the survivor count [8] was 2 of 6, 5 of 6, 6 of 6. The survivor count (dose: 120.0 mg/kg/injection, schedule: Q01DX009 (ip), vehicle: water) was 6 of 6 and the survivor count (dose: 200.0 mg/kg/injection, schedule: Q01DX009 (ip), vehicle: water) was 5 of 6 and 6 of 6.
In the case of C=C1C(=O)OC2/C=C(\CO)C3OC3C3OC3(C)CC(OC(=O)/C(=C/C)CO)C12 (stereo not given), the T/C (dose: 12.5 mg/kg/injection, schedule: Q01DX005 (ip), vehicle: Klucel (hydroxypropylcellulose) (HPC)) is reported as 134 % of control, the T/C (dose: 25.0 mg/kg/injection, schedule: Q01DX005 (ip), vehicle: Klucel (hydroxypropylcellulose) (HPC)) is reported as 93, 95, 97 [5 of 6 alive], 100 % of control and the survivor count [9] is reported as 0 of 6. For the same compound, the survivor count [10] was 0 of 6.
C=C1C(=O)O[C@H]2C1[C@H](OC(=O)/C(C)=C\C)CC(=C)[C@@H]1C(=O)[C@H]3O[C@@]3(C)[C@@]12O (stereo not given in full) was tested, and the T/C [11] was 125 % of control, the survivor count [11] was 0 of 6 and the survivor count (dose: 100.0 mg/kg/injection, schedule: Q01DX005 (ip), vehicle: saline + alcohol) was 0 of 6 and 1 of 6.
For O=c1c2ccccc2[nH]c2c1[nH]c1ccccc12, the survivor count [10] was 3 of 6.
In the case of C=C1C(=O)O[C@@H]2C[C@@H](C)[C@@H]3CC[C@H](O)[C@@]3(COC(C)=O)C[C@@H]12, the T/C (dose: 130.0 mg/kg/injection, schedule: Q01DX005 (ip), vehicle: Klucel (hydroxypropylcellulose) (HPC)) is reported as 125 % of control.
In the case of CC(C)CC(C(=O)O)N1C(=O)C=CC1=O (stereo not given), the survivor count (dose: 50.0 mg/kg/injection, schedule: Q01DX009 (ip), vehicle: Klucel (hydroxypropylcellulose) (HPC)) is reported as 1 of 6 and 3 of 6, the survivor count [2] is reported as 1 of 6 and the survivor count [4] is reported as 0 of 6.
Cc1cc(NC(=S)SCc2ccc(Cl)cc2)ccc1Cl was tested, and the T/C (dose: 100.0 mg/kg/injection, schedule: Q01DX009 (ip), vehicle: Klucel (hydroxypropylcellulose) (HPC), evaluated on day 20) was 129 % of control, the T/C (dose: 100.0 mg/kg/injection, schedule: Q01DX009 (ip), vehicle: Klucel (hydroxypropylcellulose) (HPC), evaluated on day 30) was 134 % of control and the T/C [4] was 142 % of control [5 of 6 alive]. For the same compound, the survivor count [4] was 1 of 6 and the survivor count [6] was 0 of 6.
CC(C)N(C(=S)Sc1c2ccccc2c(Br)c2ccccc12)C(C)C was tested, and the survivor count [9] was 6 of 6 and the survivor count [10] was 6 of 6.
With C[CH2][Hg][S]c1nsc([S][Hg][CH2]C)n1 the T/C (dose: 25.0 mg/kg/injection, schedule: Q01DX009 (ip), vehicle: Klucel (hydroxypropylcellulose) (HPC)) was 128 and 130 % of control [5 of 6 alive].
With O=C(O)C1CCCCC1c1c2ccc(=O)c(O)c-2oc2c(O)c(O)ccc12 (stereo not given) the survivor count [7] was 1 of 6.
For CC(=O)SC12CCCN1C(=O)C1(SC(C)=O)CCCN1C2=O (stereo not given), the survivor count [1] was 2 of 6, the survivor count [3] was 0 of 6 and the survivor count [5] was 0 of 6 and 4 of 6.
